In US4487765 (dated 1984):

Test: general procedure: solution-phase peptide synthesis; DCC/HOBt
Settings: acetate (Dowex 2X-8 exchange)

Substance | step yield (late stage modification step) [%] | step yield (coupling step) [%]
H-Cys(Trt)-Pro-Arg(Mbs)-Gly-NH2 | 89 | 
Trt-Cys(Trt)-Pro-Arg(Mbs)-Gly-NH2 |  | 96
Z-Gln-Asn-Cys(Scm)-Pro-Arg-Gly-NH2 | 57 | 
Z-Gln-Asn-Cys(Trt)-Pro-Arg(Mbs)-Gly-NH2 |  | 80.8
